# Primary screen of a compound library

Protein sequences, listed by entry. Tags and fused reporters are not part of them. Residues count along the entry.
UniProt P9WPC5, whole entry: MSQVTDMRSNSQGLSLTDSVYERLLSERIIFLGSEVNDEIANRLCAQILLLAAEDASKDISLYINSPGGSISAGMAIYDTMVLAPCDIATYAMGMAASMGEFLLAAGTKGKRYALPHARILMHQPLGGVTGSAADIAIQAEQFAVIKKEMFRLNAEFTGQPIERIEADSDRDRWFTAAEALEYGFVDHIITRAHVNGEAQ
UniProt P9WPC3, whole entry partner: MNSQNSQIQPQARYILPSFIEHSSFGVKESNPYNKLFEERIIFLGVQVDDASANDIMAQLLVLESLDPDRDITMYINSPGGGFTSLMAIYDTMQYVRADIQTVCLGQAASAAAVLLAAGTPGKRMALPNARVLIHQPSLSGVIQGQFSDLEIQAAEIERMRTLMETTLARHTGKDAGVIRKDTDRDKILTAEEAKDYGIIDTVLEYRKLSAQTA
UniProt Q4DA54, 1-478: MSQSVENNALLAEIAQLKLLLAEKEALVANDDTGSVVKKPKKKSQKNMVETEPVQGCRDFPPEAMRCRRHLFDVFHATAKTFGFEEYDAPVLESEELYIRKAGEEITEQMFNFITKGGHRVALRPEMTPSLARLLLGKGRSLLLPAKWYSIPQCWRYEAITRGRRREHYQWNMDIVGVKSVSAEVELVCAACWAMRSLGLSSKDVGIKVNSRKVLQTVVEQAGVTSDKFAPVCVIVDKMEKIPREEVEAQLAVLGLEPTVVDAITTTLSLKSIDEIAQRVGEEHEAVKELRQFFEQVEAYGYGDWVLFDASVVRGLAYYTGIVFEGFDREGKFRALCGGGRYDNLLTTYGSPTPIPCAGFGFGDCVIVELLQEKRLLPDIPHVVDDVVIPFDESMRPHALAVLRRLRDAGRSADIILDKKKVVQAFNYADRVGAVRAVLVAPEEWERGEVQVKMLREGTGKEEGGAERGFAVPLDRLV
UniProt I6X8D2, whole entry: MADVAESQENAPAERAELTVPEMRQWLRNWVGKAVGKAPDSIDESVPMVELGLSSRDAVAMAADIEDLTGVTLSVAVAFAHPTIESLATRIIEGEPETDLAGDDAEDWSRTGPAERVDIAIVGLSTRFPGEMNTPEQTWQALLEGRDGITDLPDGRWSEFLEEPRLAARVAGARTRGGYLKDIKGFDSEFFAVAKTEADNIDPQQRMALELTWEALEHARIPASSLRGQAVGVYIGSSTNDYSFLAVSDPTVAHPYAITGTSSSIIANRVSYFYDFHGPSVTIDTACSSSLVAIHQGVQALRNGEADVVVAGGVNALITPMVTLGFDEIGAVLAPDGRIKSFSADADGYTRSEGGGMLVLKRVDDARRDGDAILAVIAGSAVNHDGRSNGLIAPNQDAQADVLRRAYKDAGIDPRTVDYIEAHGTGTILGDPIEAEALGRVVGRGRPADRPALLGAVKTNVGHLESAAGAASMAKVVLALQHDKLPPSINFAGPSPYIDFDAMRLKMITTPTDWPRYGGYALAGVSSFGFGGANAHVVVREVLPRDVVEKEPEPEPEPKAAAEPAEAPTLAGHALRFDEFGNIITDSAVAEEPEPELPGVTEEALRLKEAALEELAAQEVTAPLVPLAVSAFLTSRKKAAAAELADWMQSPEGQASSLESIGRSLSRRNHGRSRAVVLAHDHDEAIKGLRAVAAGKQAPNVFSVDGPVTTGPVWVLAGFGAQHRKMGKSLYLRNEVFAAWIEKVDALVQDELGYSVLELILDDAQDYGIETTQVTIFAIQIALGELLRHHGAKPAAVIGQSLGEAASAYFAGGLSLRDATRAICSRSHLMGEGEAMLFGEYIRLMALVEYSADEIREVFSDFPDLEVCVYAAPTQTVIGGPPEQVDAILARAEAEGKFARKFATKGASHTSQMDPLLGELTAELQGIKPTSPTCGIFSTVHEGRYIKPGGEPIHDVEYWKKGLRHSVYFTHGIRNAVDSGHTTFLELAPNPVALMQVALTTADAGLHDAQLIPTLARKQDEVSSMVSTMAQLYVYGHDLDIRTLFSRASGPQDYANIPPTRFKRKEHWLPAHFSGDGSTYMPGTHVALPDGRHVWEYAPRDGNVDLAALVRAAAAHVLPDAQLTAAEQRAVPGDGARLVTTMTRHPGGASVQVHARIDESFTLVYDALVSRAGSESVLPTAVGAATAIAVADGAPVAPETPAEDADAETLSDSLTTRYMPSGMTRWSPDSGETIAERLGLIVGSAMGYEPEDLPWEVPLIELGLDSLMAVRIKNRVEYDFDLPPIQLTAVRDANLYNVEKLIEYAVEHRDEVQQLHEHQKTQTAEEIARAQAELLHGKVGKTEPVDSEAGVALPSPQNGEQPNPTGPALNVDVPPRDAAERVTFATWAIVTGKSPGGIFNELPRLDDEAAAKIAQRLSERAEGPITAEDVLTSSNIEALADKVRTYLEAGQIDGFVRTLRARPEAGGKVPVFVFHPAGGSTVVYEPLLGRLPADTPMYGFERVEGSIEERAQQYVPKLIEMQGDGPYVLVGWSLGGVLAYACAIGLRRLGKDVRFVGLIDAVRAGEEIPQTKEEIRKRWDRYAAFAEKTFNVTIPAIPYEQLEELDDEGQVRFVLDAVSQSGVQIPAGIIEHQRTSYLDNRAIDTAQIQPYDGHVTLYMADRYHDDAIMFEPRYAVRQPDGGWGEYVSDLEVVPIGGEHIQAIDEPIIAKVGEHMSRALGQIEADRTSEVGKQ
UniProt Q8IDJ8, 1-583: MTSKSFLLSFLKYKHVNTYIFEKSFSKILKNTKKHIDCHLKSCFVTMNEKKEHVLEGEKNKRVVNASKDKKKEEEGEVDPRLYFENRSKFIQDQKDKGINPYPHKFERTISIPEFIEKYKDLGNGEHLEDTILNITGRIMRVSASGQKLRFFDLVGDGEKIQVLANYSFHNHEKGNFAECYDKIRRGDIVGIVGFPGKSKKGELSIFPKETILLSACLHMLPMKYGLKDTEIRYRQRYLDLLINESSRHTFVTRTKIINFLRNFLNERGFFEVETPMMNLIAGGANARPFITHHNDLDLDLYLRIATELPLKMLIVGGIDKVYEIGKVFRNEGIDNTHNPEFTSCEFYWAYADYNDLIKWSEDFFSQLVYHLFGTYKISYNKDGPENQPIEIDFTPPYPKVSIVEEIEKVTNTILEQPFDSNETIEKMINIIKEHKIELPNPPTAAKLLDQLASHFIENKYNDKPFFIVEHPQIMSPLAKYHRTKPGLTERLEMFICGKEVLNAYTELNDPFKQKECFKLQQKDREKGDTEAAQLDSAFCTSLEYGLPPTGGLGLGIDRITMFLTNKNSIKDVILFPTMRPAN

Source: ChEMBL document CHEMBL3988442, “University of Dundee, Small-Polar-MMV Screening Library” (2021).

ClpP1P2: 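ClpP1P2, Mycobacterium tuberculosis (UniProt P9WPC5 and UniProt P9WPC3). Protease assay of ClpP1P2, read by the AMC dye that it sets free. Concentration: 50 µM. Direction is inferred from only a few compounds that gave an IC50; most scored high, so higher reads as stronger inhibition. Most other retested compounds had strongly negative values. About 69,000 compounds were tested under these conditions; 0.015% (about 10) showed 50% or more at least once.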
Toxoplasma: 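Assay of Toxoplasma gondii numbers, read through their beta-galactosidase reporter with a colour substrate. Compounds at 10 µM. Higher reads as fewer parasites (inferred from which compounds were picked for retests). Of about 67,000 compounds tested this way, about 260 (0.38%) reached 50% or more in at least one test.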
TcHisRS: 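Histidine-tRNA ligase, Trypanosoma cruzi CL Brener (UniProt Q4DA54). Enzyme assay of histidyl-tRNA synthetase; the read-out is not stated. Compounds at 30 µM. Higher reads as stronger inhibition (inferred: compounds with an IC50 in retests scored well above the rest). Size under these conditions: about 69,000 compounds, about 31 of them at 50% or above in at least one test.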
Pks13 thioesterase: 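Enzyme assay of the thioesterase domain of polyketide synthase 13; the read-out is not stated. Target: Polyketide synthase Pks13, Mycobacterium tuberculosis (UniProt I6X8D2). Tested at 30 µM. Higher reads as stronger inhibition (inferred from which compounds were picked for retests). Size under these conditions: about 67,000 compounds, about 300 of them at 50% or above in at least one test.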
PfKRS1: 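Enzyme assay of the cytosolic lysyl-tRNA synthetase in 384-well plates, read by luminescence. Target: Lysine-tRNA ligase, Plasmodium falciparum 3D7 (UniProt Q8IDJ8). Compounds at 30 µM. Direction is inferred from only a few compounds that gave an IC50; most scored high, so higher reads as stronger inhibition. About 69,000 compounds were tested under these conditions; 0.071% (about 49) showed 50% or more at least once.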

Values are the deposited “Percent Effect”, in %. The controls that fix the scale are not given in the record; negative values are as filed. This is an unselected part of the compounds tested. A dash means the value is not listed here; it may have been measured.

SMILES,ClpP1P2,Toxoplasma,TcHisRS,Pks13 thioesterase,PfKRS1
[H][C@@]12CN(C3CCOCC3)C[C@]1([H])N(CCc1ccc(OC)cc1)C(=O)O2,-,-9.763,-,-,-
CCS(=O)(=O)NC(CCSC)C(=O)Nc1ccc(F)cc1 (centres undefined),10.87,14.66,0.6135,11.45,-3.944
CC(C)c1nc(C2CCCN2Cc2ccon2)no1 (centres undefined),-0.3243,-3.861,2.299,-4.14,0.1415
O=C(CN1CCC2(CCCCC2)C1)NCC(F)(F)F,-19.4,3.845,0.9804,9.801,3.534
Cn1c2ncccc2c(=O)n1CC(=O)NCCC1=CCCCC1,6.455,10.25,7,-2.397,-2.313
Cc1cc(CN2CCC(N(C)Cc3noc(C4CC4)n3)C2)on1 (centres undefined),-18.66,-3.946,1.765,-31.23,-1.201
NC(=O)c1cc(CC2CCCN(c3cnccn3)C2)ncn1 (centres undefined),-11.06,-18.52,7.752,22.16,-0.2289
O=C(O)c1csc(S(=O)(=O)N2CCCc3cc(OC(F)F)ccc32)c1,1.794,-6.757,2.646,-9.709,8.526
c1ccn2c(C3CCCN(c4ncnc5c4CCNC5)C3)nnc2c1 (centres undefined),3.829,18.4,11.7,-37.41,-1.878
COc1cc(NCCNC(=O)c2ccc3[nH]ccc3c2)cc(OC)c1,-17.55,15.2,7.059,25.13,-7.519
Cc1cccc(N2CCC3(CCCN(C(=O)c4cccnc4)C3)CC2)n1.O=C(O)C(F)(F)F.O=C(O)C(F)(F)F,-,4.083,-,-,-
Cn1nc(CNC(=O)C2CC2)cc1C1CC1,-6.604,-6.984,2.174,-3.457,0.2853
O=C(Cc1ccccc1Cl)NCC1CCN(Cc2ccsc2)CC1,23.7,10.25,3.518,-2.921,8.152
CC(C)C(=O)N1CC[C@@H]2CN(Cc3ccncc3)S(=O)(=O)[C@@H]2CC1,-0.5914,-,1.075,-37.92,1.365
CCSc1ncc(CN(Cc2cnn(C)c2)CC(C)C)cn1,-21.1,-28.08,-4.831,11.58,-0.4734
CC(C)c1ccc(CNC(C)c2ccc(S(C)(=O)=O)cc2)cc1 (centres undefined),-6.472,4.466,8.421,-10.07,4.44
COCC(=O)N1CCC(C(=O)Nc2ccc(S(N)(=O)=O)cc2)CC1,-13.33,-36.6,3.03,-0.1167,-0.7941
COc1cc(NCc2ccc(Cl)cc2)c(-c2nn[nH]n2)cc1OC,-18.51,-6.133,15.62,2.339,2.833
OC1COCCN(Cc2cc(-c3ccccc3OC(F)(F)F)no2)C1 (centres undefined),13.34,1.901,-4.878,38.31,6.343
COc1ccc2nnc(CCCC(=O)NCCc3ccncc3)n2n1,-11.86,10.24,-1.98,-6.465,2.987
O=C(O)C(F)(F)F.O=C1NC2(CCN(CCO)CC2)CC1c1ccccc1 (centres undefined),-,4.472,-,-,-
Cc1cccc(NC(=O)[C@@H]2CCCN2Cc2nnc(C(C)C)n2C)n1,-7.578,6.163,1.667,-15,2.63
CCS(=O)(=O)N1CC[C@@H]2[C@H]1CCC(=O)N2CCOC,0.8631,-,0,-5.002,2.13
CC(C)c1nc2n(n1)CC(NCc1nc(-c3cccnc3)no1)CC2 (centres undefined),3.911,8.683,-1.132,-13.5,4.35
Cc1cc(C2CCCN(S(=O)(=O)c3cn[nH]c3)C2)ccn1 (centres undefined),-17.71,7.832,3.802,-1.877,1.717
COCC1CC2(CCN(Cc3nccs3)CC2)CN1Cc1ccccn1 (centres undefined),9.599,-,9.945,-15.81,2.13
CCn1cncc1CN1CCN(CC2(c3ccc(C)cc3)CC2)CC1.Cl,-,5.685,-,-,-
O=C(NCCCC(=O)N1Cc2ccccc2C1)NCc1cccnc1,-10.22,-3.19,-2.463,-15.11,5.12
CC(C)CN1CCCC2(CCN(c3ccc(C#N)cn3)C2)C1.O=C(O)C(F)(F)F (centres undefined),-,-8.315,-,-,-
c1ccc(CN2CCc3ncnc(-c4ccsc4)c3CC2)nc1,5.331,-,4.972,-23.49,0.5239
CN(C)c1ccc(NC(=O)NCc2ccccn2)cn1,13.75,1.112,4.183,35.67,5.057
CCc1cnc(CNc2cccc3c2CCN(S(=O)(=O)CC)C3)o1,-8.42,-2.693,-1.807,-3.484,-0.8131
O=C(CCS(=O)(=O)c1ccccc1)N1CCCC(n2cccn2)C1 (centres undefined),-15.47,-22.23,4.734,-15.55,-0.4466
NC(=O)CCOc1nc(-c2ccccc2Cl)no1,-11.35,1.423,-0.8264,-21.24,1.148
CN(C)C(=O)CO[C@@H]1CC[C@H]2[C@H]1OCCN2c1ncc(F)cn1,-9.304,-,2.21,-1.97,3.534
Cn1cc(CN(Cc2ccccc2)Cc2ccccn2)cn1,-1.238,-,-1.149,-14.35,0.03504
Cc1nccc(C2CCCCN2Cc2ccccc2)n1 (centres undefined),-7.721,-13.68,9.125,8.351,1.276
Cc1c(C)n(Cc2ccccn2)c2nc3c(c(N)c12)CCCC3,5.929,-1.195,-4.918,-24.72,6.752

For reference, 3 entries once more:

| SMILES | ClpP1P2 | Toxoplasma | TcHisRS | Pks13 thioesterase | PfKRS1 |
|---|---|---|---|---|---|
| `Cc1cccc(NC(=O)[C@@H]2CCCN2Cc2nnc(C(C)C)n2C)n1` | -7.578 | 6.163 | 1.667 | -15 | 2.63 |
| `Cn1nc(CNC(=O)C2CC2)cc1C1CC1` | -6.604 | -6.984 | 2.174 | -3.457 | 0.2853 |
| `O=C(NCCCC(=O)N1Cc2ccccc2C1)NCc1cccnc1` | -10.22 | -3.19 | -2.463 | -15.11 | 5.12 |